Drawing on PMC9958327, this text covers binding for one substance.

No constants are given. Whether binding was seen depends on the method and setting. In cells and extracts the contact can be indirect. Some entries that bind do so weakly or less than the wild type.

The assay deals with EGF receptor (EGFR), endogenous (human (endogenous in PC-3 and DU-145)) (UniProt P00533). The experiment in a line: co-IP; endogenous co-IP from PC-3 (legend: PC-3 and DU-145) cell lysate; overnight with target antibody at 4 °C, protein A agarose beads, immunoblot; rabbit IgG as negative control. On the technique in general: A western blot detects proteins with antibodies after separation by electrophoresis.

As for “Neuropilin 1 (NRP1), endogenous (from UniProt O14786 22-923) (receptor)”, the binding entry is listed as “binds”.
